Measured values published in patent US4510142A, “Derivatives of biphenyl alkyl carboxylates and their use as medicaments” (Pierre Fabre S.A., priority 1981, dated 1985).

Test: in vivo
Settings: mouse, po
Protocol: A toxicity study was carried out on conventional mice weighing about 20 grams.
The compounds corresponding to the general formula I according to the present invention and the pharmaceutically acceptable salts thereof were administered orally. The DL50 was calculated according to the method by L. C. Miller and M. L. Tainter--Proc. Soc. Exper.

COc1ccc2cc([C@H](C)C(=O)O)ccc2c1 [Naproxen] showed an LD50 of 400 mg/kg.
